The list shows a part of the results.
Legend:
Assay in all cases: log2 fold change, soluble protein after heating vs DMSO (PISA); higher = thermal stabilisation; K562 cells, 10 uM, 30 min; active = over 0.2 and 3.5 SD of the protein, either way, in both replicates (recomputed)
[1] = compound: CC[C@@H]1C(=O)N(C)c2cnc(Nc3ccc(C(=O)NC4CCN(C)CC4)cc3OC)nc2N1C1CCCC1
How it was run: (§1)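 For each measurement, 10 μM compound was applied for 30 min to K562 cells at 2×10^6 cells/mL. Aliquots were heated for 3 min across 48°C-58°C, pooled, and extracted in PBS with 0.5% NP-40 at 4°C; the supernatant after 21,000xg for 90 min was soluble protein. This was quantified by TMTpro 16plex LC-MS/MS with channel sums equalised, and thermal stability was reported relative to control samples from duplicates, on a log2 fold-change scale.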

By UniProt entry, the sequences of proteins in these tests, tags left out. Where a name states a change or a piece, a line headed by the entry shows the natural chain unless it says otherwise.
UniProt P48444: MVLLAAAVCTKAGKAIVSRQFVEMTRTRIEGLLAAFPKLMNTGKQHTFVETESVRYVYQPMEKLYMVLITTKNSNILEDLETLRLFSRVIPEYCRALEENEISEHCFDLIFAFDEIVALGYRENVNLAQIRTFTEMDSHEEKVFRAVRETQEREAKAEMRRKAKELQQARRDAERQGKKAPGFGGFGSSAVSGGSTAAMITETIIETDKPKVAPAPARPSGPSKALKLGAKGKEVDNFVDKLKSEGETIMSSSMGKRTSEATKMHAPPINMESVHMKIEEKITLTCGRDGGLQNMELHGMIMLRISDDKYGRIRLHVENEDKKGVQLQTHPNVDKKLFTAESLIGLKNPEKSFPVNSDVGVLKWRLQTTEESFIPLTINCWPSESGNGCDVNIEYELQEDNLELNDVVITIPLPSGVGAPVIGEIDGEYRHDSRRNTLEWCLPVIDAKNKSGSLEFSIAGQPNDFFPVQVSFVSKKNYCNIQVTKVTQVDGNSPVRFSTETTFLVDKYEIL
UniProt Q6NXT1: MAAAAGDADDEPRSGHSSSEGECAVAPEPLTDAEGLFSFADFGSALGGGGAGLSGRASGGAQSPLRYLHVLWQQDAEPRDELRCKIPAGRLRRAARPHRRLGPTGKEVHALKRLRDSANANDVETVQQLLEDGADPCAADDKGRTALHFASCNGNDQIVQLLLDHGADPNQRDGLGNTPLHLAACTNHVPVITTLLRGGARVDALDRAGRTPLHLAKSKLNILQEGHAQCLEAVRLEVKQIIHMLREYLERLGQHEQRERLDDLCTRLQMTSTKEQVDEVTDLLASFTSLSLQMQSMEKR
UniProt Q96GX9: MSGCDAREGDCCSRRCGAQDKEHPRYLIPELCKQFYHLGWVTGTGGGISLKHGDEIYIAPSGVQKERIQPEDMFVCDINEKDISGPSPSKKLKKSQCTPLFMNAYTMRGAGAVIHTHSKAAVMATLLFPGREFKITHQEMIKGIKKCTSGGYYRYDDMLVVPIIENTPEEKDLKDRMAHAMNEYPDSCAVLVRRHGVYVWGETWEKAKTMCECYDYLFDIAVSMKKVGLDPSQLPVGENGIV
UniProt P78540: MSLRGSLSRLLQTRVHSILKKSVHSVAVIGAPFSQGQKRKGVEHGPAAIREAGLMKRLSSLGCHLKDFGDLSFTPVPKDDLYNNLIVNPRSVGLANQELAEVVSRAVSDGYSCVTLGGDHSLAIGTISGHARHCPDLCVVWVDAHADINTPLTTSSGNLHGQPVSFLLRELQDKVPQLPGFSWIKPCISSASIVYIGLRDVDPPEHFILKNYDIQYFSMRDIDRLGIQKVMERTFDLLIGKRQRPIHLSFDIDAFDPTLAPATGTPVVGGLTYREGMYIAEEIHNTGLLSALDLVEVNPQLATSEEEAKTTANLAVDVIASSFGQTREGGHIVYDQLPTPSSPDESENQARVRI
UniProt P61204: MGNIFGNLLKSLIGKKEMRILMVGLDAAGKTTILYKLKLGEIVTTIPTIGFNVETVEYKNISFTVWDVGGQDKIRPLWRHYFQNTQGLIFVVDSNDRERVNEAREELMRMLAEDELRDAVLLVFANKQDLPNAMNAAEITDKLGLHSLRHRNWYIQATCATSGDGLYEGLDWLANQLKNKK
UniProt Q8IZ07: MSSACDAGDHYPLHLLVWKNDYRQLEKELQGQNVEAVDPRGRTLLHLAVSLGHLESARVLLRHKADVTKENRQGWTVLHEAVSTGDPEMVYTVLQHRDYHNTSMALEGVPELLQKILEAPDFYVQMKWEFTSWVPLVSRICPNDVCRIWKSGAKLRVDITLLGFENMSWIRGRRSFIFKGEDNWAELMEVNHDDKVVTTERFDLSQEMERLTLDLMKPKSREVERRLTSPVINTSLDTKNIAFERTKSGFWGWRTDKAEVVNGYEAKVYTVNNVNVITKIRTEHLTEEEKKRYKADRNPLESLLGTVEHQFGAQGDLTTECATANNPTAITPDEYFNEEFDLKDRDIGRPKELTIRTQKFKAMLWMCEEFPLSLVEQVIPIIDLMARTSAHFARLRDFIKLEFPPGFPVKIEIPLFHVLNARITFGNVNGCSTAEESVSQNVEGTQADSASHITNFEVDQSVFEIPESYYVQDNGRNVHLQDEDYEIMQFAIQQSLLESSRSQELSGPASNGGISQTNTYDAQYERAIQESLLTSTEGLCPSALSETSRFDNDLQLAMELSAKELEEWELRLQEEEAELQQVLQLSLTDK
UniProt P02654: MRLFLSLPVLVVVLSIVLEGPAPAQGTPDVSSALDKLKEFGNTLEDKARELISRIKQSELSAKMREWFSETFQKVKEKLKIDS
UniProt Q9NP61: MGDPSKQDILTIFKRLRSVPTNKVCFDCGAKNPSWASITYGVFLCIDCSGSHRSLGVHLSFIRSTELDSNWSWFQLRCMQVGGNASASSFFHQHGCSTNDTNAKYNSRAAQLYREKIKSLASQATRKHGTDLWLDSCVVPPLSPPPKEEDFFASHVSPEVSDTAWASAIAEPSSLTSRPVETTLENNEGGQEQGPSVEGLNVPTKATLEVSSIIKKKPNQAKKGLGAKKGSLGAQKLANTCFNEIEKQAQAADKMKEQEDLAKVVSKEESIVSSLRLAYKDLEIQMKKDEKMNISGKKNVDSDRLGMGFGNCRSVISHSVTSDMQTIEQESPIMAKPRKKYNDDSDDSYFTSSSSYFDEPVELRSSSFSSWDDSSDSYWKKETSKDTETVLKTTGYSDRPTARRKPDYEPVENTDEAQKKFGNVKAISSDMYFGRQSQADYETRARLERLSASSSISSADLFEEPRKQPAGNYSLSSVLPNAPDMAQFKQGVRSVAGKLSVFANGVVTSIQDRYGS
UniProt P20073: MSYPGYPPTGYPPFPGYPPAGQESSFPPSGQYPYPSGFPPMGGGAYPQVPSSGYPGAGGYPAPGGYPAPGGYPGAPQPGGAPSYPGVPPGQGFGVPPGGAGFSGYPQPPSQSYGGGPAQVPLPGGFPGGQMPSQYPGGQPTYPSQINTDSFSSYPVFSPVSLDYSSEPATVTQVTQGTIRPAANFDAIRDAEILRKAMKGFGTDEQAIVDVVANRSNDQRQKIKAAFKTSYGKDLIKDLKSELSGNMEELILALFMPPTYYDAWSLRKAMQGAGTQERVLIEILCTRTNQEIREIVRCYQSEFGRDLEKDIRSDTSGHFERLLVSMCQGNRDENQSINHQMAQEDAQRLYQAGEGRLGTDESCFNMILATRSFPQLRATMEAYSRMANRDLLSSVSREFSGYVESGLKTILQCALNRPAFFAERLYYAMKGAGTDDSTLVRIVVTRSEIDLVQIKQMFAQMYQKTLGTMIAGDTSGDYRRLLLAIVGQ
UniProt Q9NW15: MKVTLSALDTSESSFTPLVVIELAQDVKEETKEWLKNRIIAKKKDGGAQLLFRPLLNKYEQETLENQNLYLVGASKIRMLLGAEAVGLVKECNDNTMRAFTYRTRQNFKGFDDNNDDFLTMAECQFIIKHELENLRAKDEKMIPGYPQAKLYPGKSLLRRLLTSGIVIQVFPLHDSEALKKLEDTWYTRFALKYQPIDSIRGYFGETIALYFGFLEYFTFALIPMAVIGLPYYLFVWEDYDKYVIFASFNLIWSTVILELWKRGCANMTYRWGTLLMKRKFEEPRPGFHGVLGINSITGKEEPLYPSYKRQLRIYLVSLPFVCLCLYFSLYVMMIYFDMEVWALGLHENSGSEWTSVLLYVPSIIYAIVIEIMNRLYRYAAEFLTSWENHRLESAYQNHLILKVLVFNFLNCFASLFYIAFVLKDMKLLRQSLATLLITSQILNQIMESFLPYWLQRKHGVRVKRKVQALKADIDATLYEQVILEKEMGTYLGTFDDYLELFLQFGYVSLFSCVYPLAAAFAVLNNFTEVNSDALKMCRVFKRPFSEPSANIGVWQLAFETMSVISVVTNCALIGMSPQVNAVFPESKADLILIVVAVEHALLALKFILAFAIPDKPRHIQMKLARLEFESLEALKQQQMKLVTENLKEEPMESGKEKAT
UniProt Q9BZZ5: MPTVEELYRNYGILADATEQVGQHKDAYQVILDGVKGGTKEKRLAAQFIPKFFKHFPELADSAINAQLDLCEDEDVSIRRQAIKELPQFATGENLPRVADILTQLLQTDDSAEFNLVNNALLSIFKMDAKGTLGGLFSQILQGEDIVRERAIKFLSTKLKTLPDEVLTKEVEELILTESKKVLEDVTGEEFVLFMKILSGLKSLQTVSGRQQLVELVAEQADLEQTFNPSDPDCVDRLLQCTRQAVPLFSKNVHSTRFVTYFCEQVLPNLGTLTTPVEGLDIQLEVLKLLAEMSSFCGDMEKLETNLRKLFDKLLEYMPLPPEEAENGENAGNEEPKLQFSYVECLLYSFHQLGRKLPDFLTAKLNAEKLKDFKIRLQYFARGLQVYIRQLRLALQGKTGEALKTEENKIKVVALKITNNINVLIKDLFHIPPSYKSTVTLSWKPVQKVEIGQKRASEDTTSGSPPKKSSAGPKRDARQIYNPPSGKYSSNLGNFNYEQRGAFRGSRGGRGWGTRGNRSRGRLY
UniProt P53365: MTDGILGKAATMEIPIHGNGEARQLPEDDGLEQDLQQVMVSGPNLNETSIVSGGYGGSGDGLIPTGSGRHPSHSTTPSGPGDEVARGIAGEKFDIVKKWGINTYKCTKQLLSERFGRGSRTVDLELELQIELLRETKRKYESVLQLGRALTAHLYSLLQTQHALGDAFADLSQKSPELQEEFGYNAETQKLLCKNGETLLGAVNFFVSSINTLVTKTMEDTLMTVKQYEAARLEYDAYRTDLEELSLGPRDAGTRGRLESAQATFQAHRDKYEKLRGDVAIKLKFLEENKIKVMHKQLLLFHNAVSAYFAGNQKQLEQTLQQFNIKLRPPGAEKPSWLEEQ
UniProt P07355, whole entry, looked up: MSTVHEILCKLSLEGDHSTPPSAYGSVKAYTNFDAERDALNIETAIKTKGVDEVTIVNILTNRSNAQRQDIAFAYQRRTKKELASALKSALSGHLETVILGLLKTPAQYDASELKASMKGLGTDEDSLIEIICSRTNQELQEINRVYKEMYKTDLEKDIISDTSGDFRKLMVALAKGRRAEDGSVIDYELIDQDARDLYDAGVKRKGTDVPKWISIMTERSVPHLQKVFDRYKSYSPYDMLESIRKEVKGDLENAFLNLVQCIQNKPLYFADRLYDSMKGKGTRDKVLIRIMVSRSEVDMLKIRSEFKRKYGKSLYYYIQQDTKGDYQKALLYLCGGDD
UniProt P39687: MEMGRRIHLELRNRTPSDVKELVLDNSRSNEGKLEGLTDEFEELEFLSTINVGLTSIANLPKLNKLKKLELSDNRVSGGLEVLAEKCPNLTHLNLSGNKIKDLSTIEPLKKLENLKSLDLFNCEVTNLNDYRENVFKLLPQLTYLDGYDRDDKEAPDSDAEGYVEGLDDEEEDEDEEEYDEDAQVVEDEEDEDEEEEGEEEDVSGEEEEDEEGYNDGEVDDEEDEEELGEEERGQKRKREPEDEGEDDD
UniProt Q8IV38: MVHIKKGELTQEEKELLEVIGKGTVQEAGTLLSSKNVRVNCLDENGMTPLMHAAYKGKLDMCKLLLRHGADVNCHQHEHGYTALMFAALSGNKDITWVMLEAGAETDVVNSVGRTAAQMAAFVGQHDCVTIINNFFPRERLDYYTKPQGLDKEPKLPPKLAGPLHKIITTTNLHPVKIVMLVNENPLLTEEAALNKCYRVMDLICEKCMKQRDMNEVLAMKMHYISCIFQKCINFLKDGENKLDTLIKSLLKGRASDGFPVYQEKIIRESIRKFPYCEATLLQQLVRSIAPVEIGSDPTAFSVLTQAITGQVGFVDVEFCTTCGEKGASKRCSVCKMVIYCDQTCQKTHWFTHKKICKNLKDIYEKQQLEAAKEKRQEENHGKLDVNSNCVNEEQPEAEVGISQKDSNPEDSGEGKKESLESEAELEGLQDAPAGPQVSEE

[2] = compound: CC[C@@H]1C(=O)N(C)c2cnc(Nc3ccc(C(=O)N[C@H]4CC[C@H](N5CCN(CC6CC6)CC5)CC4)cc3OC)nc2N1C(C)C [volasertib]
How it was run: as §1

[3] = compound: CC[C@H](C)N1C=C(C2=C(C=C(C=C21)C3=CN=C(C=C3)N4CCNCC4)C(=O)NCC5=C(C=C(NC5=O)C)C)C
How it was run: as §1

[4] = compound: CC[C@H](C)[C@@H](C(=O)N[C@@H]([C@@H](C)O)C(=O)N[C@@H](CC(C)C)C(=O)[C@]1(CO1)C)NC(=O)[C@H]([C@@H](C)CC)N(C)C(=O)C [epoxomicin]
How it was run: as §1

[5] = compound: CCn1c(C(=O)N(C2CC2)C2CC2)cc2c3c(ncn3C)c(Nc3cc(C)n(C)n3)nc21
How it was run: as §1

[6] = compound: CCn1cc(-c2ccnc3[nH]c(-c4cccc(CN(C)C)c4)cc23)c(-c2ccc(NC(=O)N(C)C)cc2)n1
How it was run: as §1

[7] = compound: CN(C)CC(=O)Nc1ccc2[nH]c(=O)c3ccccc3c2c1
How it was run: as §1

[8] = compound: CN(CCOC1=CC=C(C=C1)C[C@H]2C(=O)NC(=O)S2)C3=CC=CC=N3 (racemic) [rosiglitazone]
How it was run: as §1

[9] = compound: CN1C2=C(C3=C1C(=O)N(N=C3)CC4=CC(=CC=C4)N)SC(=C2)S(=O)C
How it was run: as §1

[10] = compound: CN1CCC(CNc2ccc3ncc(-c4cccc(OC(F)(F)F)c4)n3n2)CC1
How it was run: as §1

[11] = compound: CN1CCN(CCOc2cc(OC3CCOCC3)c3c(Nc4c(Cl)ccc5c4OCO5)ncnc3c2)CC1 [saracatinib]
How it was run: as §1

[12] = compound: CN1CCN(c2nc(C3=C(c4c[nH]c5ccccc45)C(=O)NC3=O)c3ccccc3n2)CC1 [sotrastaurin]
How it was run: as §1

[13] = compound: CN1CC[C@H](c2c(O)cc(O)c3c(=O)cc(-c4ccccc4Cl)oc23)[C@H](O)C1 [alvocidib]
How it was run: as §1

[14] = compound: CN1CCc2c(c3ccccc3n2Cc2ccc(C(=O)NO)cc2)C1 [Tubastatin A]
How it was run: as §1

[15] = compound: CNC(=O)C1=CC=CC=C1NC2=NC(=NC=C2Cl)NC3=C(C=C(C=C3)N4CCOCC4)OC
How it was run: as §1

[16] = compound: CNC(=O)c1ccc(Nc2ncc(C(F)(F)F)c(NCc3nccnc3N(C)S(C)(=O)=O)n2)cc1 [defactinib]
How it was run: as §1

[17] = compound: CNCc1ccc(-c2[nH]c3cc(F)cc4c3c2CCNC4=O)cc1 [rucaparib]
How it was run: as §1

[18] = compound: CNc1nc(-c2ccc3c(N)n[nH]c3c2)cc(N2C[C@@H](C(=O)NC3CCCCC3)CC[C@H]2C)n1
How it was run: as §1

[19] = compound: COC(=O)N[C@@H](C)CNc1nccc(-c2cn(C(C)C)nc2-c2cc(Cl)cc(NS(C)(=O)=O)c2F)n1 [encorafenib]
How it was run: as §1

[20] = compound: COC(=O)[C@H](CCSC)NC(=O)C1=C(C=C(C=C1)NC[C@H](CS)N)C2=CC=CC=C2
How it was run: as §1

Measured: log2 fold change

ARCN1 (UniProt P48444)
inactive: [1] -0.018 | [2] -0.121 | [3] 0.032 | [4] 0.057 | [5] -0.047 | [6] -0.011 | [7] 0.006 | [8] 0.025 | [9] -0.045 | [10] 0.014 | [11] 0.013 | [12] -0.011 | [13] -0.016 | [14] -0.017 | [15] 0.016 | [16] -0.068 | [17] -0.019 | [18] -0.035 | [19] 0.078 | [20] -0.02

ANKRD54 (UniProt Q6NXT1)
inactive: [1] 0.014 | [2] -0.181 | [3] 0.09 | [4] 0.019 | [5] 0.021 | [6] -0.109 | [7] 0.149 | [8] 0.046 | [9] -0.2 | [10] 0 | [11] 0.123 | [12] 0.007 | [13] 0.024 | [14] 0.02 | [15] -0.054 | [16] -0.132 | [17] 0.007 | [18] -0.046 | [19] -0.076 | [20] -0.058

APIP (UniProt Q96GX9)
inactive: [1] 0.051 | [2] 0.065 | [3] -0.04 | [4] -0.036 | [5] 0 | [6] 0.007 | [7] 0.001 | [8] 0.064 | [9] -0.077 | [10] 0.029 | [11] 0.039 | [12] 0.009 | [13] 0.034 | [14] -0.011 | [15] -0.012 | [16] -0.013 | [17] -0.069 | [18] -0.047 | [19] 0.018 | [20] 0.049

ARG2 (UniProt P78540)
inactive: [1] 0.017 | [2] 0.019 | [3] -0.043 | [4] -0.038 | [5] 0.038 | [6] -0.013 | [7] -0.018 | [8] 0.026 | [9] 0.03 | [10] 0.057 | [11] 0.079 | [12] 0.035 | [13] -0.002 | [14] -0.026 | [15] -0.032 | [16] -0.006 | [17] -0.046 | [18] -0.062 | [19] -0.059 | [20] -0.014

2 consecutive records already listed, for reference:
ARCN1 (UniProt P48444)
inactive: [1] -0.018 | [2] -0.121 | [3] 0.032 | [4] 0.057 | [5] -0.047 | [6] -0.011 | [7] 0.006 | [8] 0.025 | [9] -0.045 | [10] 0.014 | [11] 0.013 | [12] -0.011 | [13] -0.016 | [14] -0.017 | [15] 0.016 | [16] -0.068 | [17] -0.019 | [18] -0.035 | [19] 0.078 | [20] -0.02

ANKRD54 (UniProt Q6NXT1)
inactive: [1] 0.014 | [2] -0.181 | [3] 0.09 | [4] 0.019 | [5] 0.021 | [6] -0.109 | [7] 0.149 | [8] 0.046 | [9] -0.2 | [10] 0 | [11] 0.123 | [12] 0.007 | [13] 0.024 | [14] 0.02 | [15] -0.054 | [16] -0.132 | [17] 0.007 | [18] -0.046 | [19] -0.076 | [20] -0.058

Going on with the list:

ARF3 (UniProt P61204)
inactive: [1] 0.079 | [2] 0.032 | [3] -0.039 | [4] -0.039 | [5] 0.002 | [6] -0.023 | [7] -0.009 | [8] 0.004 | [9] -0.061 | [10] 0.03 | [11] 0.058 | [12] 0.017 | [13] -0.009 | [14] -0.024 | [15] -0.027 | [16] 0.002 | [17] -0.049 | [18] -0.017 | [19] 0.021 | [20] -0.005

ANKRD13A (UniProt Q8IZ07)
inactive: [1] 0.082 | [2] -0.158 | [3] -0.025 | [4] 0.03 | [5] 0.033 | [6] -0.008 | [7] 0.023 | [8] -0.02 | [9] 0.035 | [10] 0.021 | [11] 0.012 | [12] -0.067 | [13] -0.092 | [14] -0.031 | [15] 0.015 | [16] -0.096 | [17] -0.039 | [18] -0.041 | [19] -0.045 | [20] -0.051

APOC1 (UniProt P02654)
inactive: [1] 0.202 | [2] 0.128 | [3] -0.038 | [4] 0.243 | [5] 0.032 | [6] 0.089 | [7] 0.046 | [8] 0.006 | [9] -0.037 | [10] 0.196 | [11] -0.124 | [12] 0.006 | [13] 0.08 | [14] -0.036 | [15] 0.035 | [16] -0.004 | [17] -0.047 | [18] -0.072 | [19] -0.045 | [20] 0.07

ARFGAP3 (UniProt Q9NP61)
inactive: [1] -0.074 | [2] -0.026 | [3] 0.055 | [4] 0.04 | [5] -0.021 | [6] 0.004 | [7] 0.01 | [8] 0.045 | [9] -0.031 | [10] 0.024 | [11] -0.027 | [12] -0.019 | [13] -0.108 | [14] 0.012 | [15] -0.012 | [16] -0.056 | [17] -0.012 | [18] -0.038 | [19] -0.026 | [20] 0.013

ANXA7 (UniProt P20073)
inactive: [1] -0.077 | [2] -0.097 | [3] 0.017 | [4] 0.042 | [5] -0.003 | [6] -0.049 | [7] 0.031 | [8] -0.019 | [9] -0.071 | [10] -0.03 | [11] 0.013 | [12] -0.024 | [13] -0.064 | [14] -0.004 | [15] 0.106 | [16] -0.043 | [17] 0.008 | [18] -0.034 | [19] -0.004 | [20] -0.014

ANO10 (UniProt Q9NW15)
inactive: [1] -0.099 | [2] -0.102 | [3] 0.025 | [4] 0.027 | [5] 0.02 | [6] -0.011 | [7] 0.008 | [8] 0.065 | [9] -0.059 | [10] 0.102 | [11] 0.022 | [12] -0.004 | [13] -0.089 | [14] 0.036 | [15] 0.047 | [16] -0.029 | [17] -0.042 | [18] -0.051 | [19] -0.01 | [20] 0

API5 (UniProt Q9BZZ5)
inactive: [1] -0.02 | [2] -0.074 | [3] -0.009 | [4] 0.036 | [5] -0.037 | [6] -0.048 | [7] -0.011 | [8] 0.022 | [9] -0.067 | [10] 0.009 | [11] 0.018 | [12] -0.001 | [13] -0.046 | [14] -0.015 | [15] -0.029 | [16] -0.019 | [17] -0.081 | [18] -0.049 | [19] 0.011 | [20] -0.002

ARFIP2 (UniProt P53365)
inactive: [1] 0.015 | [2] -0.158 | [3] 0.139 | [4] 0.014 | [5] -0.173 | [6] -0.1 | [7] 0.036 | [8] 0.029 | [9] 0.036 | [10] -0.338 | [11] -0.029 | [12] -0.137 | [13] -0.096 | [14] 0 | [15] -0.25 | [16] -0.092 | [17] -0.053 | [18] -0.001 | [19] -0.01 | [20] 0.106

ANXA2 isoform 2 (UniProt P07355)
inactive: [1] -0.029 | [2] -0.012 | [3] 0.065 | [4] 0.039 | [5] 0.019 | [6] -0.052 | [7] 0.008 | [8] 0.017 | [9] -0.048 | [10] 0.044 | [11] 0.01 | [12] -0.057 | [13] -0.089 | [14] -0.02 | [15] 0.021 | [16] -0.026 | [17] -0.1 | [18] 0.011 | [19] 0.015 | [20] -0.014

ANP32A (UniProt P39687)
inactive: [1] -0.067 | [2] -0.083 | [3] -0.007 | [4] 0.04 | [5] 0.003 | [6] 0.01 | [7] 0.033 | [8] 0.046 | [9] -0.091 | [10] -0.016 | [11] 0.004 | [12] 0.003 | [13] -0.084 | [14] 0.005 | [15] -0.018 | [16] -0.071 | [17] -0.203 | [18] -0.015 | [19] 0.099 | [20] -0.003

ANK3 (UniProt Q12955)
inactive: [1] -0.006 | [2] -0.149 | [3] -0.051 | [4] -0.086 | [5] -0.115 | [6] 0.088 | [7] -0.025 | [8] -0.069 | [9] 0.238 | [10] -0.139 | [11] -0.151 | [12] 0.067 | [13] 0.058 | [14] 0.155 | [15] -0.013 | [16] -0.034 | [17] 0.344 | [18] -0.012 | [19] 0.156 | [20] -0.1

ANKMY2 (UniProt Q8IV38)
inactive: [1] -0.05 | [2] -0.17 | [3] 0.048 | [4] 0.067 | [5] -0.027 | [6] -0.064 | [7] 0.005 | [8] 0.065 | [9] -0.058 | [10] 0.047 | [11] -0.03 | [12] -0.061 | [13] -0.041 | [14] 0.046 | [15] 0.011 | [16] -0.038 | [17] -0.051 | [18] -0.015 | [19] 0.035 | [20] -0.025
